Measurements reported in PubChem BioAssay AID1259254 (NCATS, 2017).
Assay: 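Finding genes that stop cells copying their DNA twice in one cycle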 (primary screen). System: human HCT116 colorectal cancer cells. Reagent: single siRNA against human genes. Time to read-out: 3 days. Detection: 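Nuclei stained with Hoechst and imaged; cell-cycle phase assigned by DNA content; G2 share scaled per plate, non-targeting siRNA 0%, GMNN siRNA 100%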. Reading the numbers: G2 robust z-score and G2 cells, % of GMNN control: higher = more G2 cells, more excess DNA replication; raw share of cells in G2: higher = larger share of cells with G2 DNA content. Rule for the call: 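An siRNA counts as active if its G2 robust z-score lies at least 5 MADs above the screen median; here such calls match roughly 38% of GMNN control or more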.
The deposit covers about 59,000 reagents; shown is a random part of them. About 1,550 of all reagents (2.6%) were called active. 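G2 share is only a proxy for re-replication; each gene was hit by three separate siRNAs, and active genes were retested.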 Raw values vary from plate to plate and are shown uncorrected. A number with no mark means an inactive call. Reagents against one gene are numbered here. Not stated in the record: the amount of reagent.

no.	target	siRNA no.	G2 robust z-score	G2 cells, % of GMNN control	raw share of cells in G2 (%)
1	FASLG (Fas ligand)	1	0.976	9.84	9.92
2	FASLG (Fas ligand)	2	-0.306	0.813	4.39
3	FASLG (Fas ligand)	3	-0.235	1.31	4.04
4	POLR1D (RNA polymerase I and III subunit D)	1	1.12	10.8	8.25
5	POLR1D (RNA polymerase I and III subunit D)	2	3.88	30.2	15.4
6	POLR1D (RNA polymerase I and III subunit D)	3	-0.324	0.69	6.27
7	ZNF253 (zinc finger protein 253)	1	0.997	9.98	6.31
8	ZNF253 (zinc finger protein 253)	2	-0.9	-3.36	4.39
9	ZNF253 (zinc finger protein 253)	3	3.71	29.1	12.8
10	MYO10 (myosin X)	1	1.9	16.3	11.9
11	MYO10 (myosin X)	2	-0.551	-0.907	2.9
12	MYO10 (myosin X)	3	0.315	5.18	7.36
13	ZNF397 (zinc finger protein 397)	1	-0.635	-1.5	3.65
14	ZNF397 (zinc finger protein 397)	2	-0.918	-3.49	3.49
15	ZNF397 (zinc finger protein 397)	3	1.31	12.2	10.5
16	MAPK8IP1 (mitogen-activated protein kinase 8 interacting protein 1)	1	-1.19	-5.39	1.36
17	MAPK8IP1 (mitogen-activated protein kinase 8 interacting protein 1)	2	-0.23	1.35	5.71
18	MAPK8IP1 (mitogen-activated protein kinase 8 interacting protein 1)	3	-0.682	-1.83	4.01

2 entries from above, showing only “raw share of cells in G2 (%)”:
FASLG (Fas ligand) #3: 4.04
POLR1D (RNA polymerase I and III subunit D) #1: 8.25

More results:
no.	target	siRNA no.	G2 robust z-score	G2 cells, % of GMNN control	raw share of cells in G2 (%)
19	SINHCAF (SIN3-HDAC complex associated factor)	1	0.345	5.39	6.47
20	SINHCAF (SIN3-HDAC complex associated factor)	2	-0.297	0.876	4.88
21	SINHCAF (SIN3-HDAC complex associated factor)	3	0.394	5.74	4.85
22	LRP6 (LDL receptor related protein 6)	1	3.83	29.9	17.3
23	LRP6 (LDL receptor related protein 6)	2	-1.11	-4.88	3.48
24	LRP6 (LDL receptor related protein 6)	3	0.116	3.79	4.44
25	IL13RA2 (interleukin 13 receptor subunit alpha 2)	1	-0.159	1.85	5.72
26	IL13RA2 (interleukin 13 receptor subunit alpha 2)	2	-0.0265	2.78	6.74
27	IL13RA2 (interleukin 13 receptor subunit alpha 2)	3	-0.224	1.39	4.71
28	NIPBL (NIPBL cohesin loading factor)	1	-1.45	-7.22	1.7
29	NIPBL (NIPBL cohesin loading factor)	2	-0.898	-3.35	2.49
30	NIPBL (NIPBL cohesin loading factor)	3	-1.4	-6.91	0.885
31	MSH5 (mutS homolog 5)	1	-0.209	1.49	3.69
32	MSH5 (mutS homolog 5)	2	0.832	8.82	8.97
33	MSH5 (mutS homolog 5)	3	2.61	21.3	13.6
34	CSTF1 (cleavage stimulation factor subunit 1)	1	-0.57	-1.04	4.81
35	CSTF1 (cleavage stimulation factor subunit 1)	2	0.181	4.24	5.64
36	CSTF1 (cleavage stimulation factor subunit 1)	3	-1.01	-4.14	1.9
37	PIK3CB	1	0.208	4.43	7.07
38	PIK3CB	2	-0.172	1.76	6
39	PIK3CB	3	-0.565	-1.01	3.67
